The values are deposited in ChEMBL (CHEMBL3988442, “University of Dundee, Small-Polar-MMV Screening Library” (2021)).

By UniProt entry, the sequences of proteins in these tests, tags left out. Residues count along the entry.
UniProt A4I591, 1-473: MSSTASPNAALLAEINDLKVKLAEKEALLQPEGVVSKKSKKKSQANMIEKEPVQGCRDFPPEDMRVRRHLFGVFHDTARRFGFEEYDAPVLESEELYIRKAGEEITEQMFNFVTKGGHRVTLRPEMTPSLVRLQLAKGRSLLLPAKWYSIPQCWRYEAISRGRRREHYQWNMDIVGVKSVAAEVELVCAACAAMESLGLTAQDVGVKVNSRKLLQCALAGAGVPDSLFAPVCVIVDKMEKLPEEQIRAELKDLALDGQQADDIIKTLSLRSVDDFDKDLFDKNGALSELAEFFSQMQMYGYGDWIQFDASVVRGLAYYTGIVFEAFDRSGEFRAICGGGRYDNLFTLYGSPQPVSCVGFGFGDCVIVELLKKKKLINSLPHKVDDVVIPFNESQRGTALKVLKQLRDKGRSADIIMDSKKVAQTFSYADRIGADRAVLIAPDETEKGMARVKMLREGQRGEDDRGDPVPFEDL
UniProt P9WFT3, whole entry: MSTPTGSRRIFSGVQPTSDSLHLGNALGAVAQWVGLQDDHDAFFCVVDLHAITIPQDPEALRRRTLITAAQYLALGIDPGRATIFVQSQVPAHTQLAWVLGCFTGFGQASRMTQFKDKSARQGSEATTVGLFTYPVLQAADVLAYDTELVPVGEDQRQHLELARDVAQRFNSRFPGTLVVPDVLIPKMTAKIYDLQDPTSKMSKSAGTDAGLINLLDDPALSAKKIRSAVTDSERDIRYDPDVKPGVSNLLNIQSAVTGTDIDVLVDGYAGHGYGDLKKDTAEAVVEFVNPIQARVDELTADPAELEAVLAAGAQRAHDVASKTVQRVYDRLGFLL
UniProt P9WNZ1, whole entry: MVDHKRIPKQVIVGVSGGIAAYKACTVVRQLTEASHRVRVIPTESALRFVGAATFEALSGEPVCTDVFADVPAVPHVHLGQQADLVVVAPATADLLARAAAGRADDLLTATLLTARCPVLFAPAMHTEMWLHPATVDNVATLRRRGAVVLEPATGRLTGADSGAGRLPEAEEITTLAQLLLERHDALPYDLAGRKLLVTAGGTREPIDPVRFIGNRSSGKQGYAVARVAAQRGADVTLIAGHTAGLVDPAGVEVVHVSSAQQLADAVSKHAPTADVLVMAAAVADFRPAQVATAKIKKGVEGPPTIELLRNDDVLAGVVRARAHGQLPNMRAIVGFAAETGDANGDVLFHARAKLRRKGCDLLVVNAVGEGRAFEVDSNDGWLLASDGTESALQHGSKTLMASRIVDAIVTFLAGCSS

LiHisRS: 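Enzyme assay of histidyl-tRNA synthetase; the read-out is not stated. Target: Histidine-tRNA ligase, Leishmania infantum (UniProt A4I591). Tested at 30 µM. Higher reads as stronger inhibition (inferred: compounds with an IC50 in retests scored well above the rest). The assay is labelled LdHisRS but filed under L. infantum. Size under these conditions: about 69,000 compounds, about 410 of them at 50% or above in at least one test.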
MtTrpRS: 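Tryptophan-tRNA ligase, Mycobacterium tuberculosis (UniProt P9WFT3). Enzyme assay of tryptophanyl-tRNA synthetase; the read-out is not stated. Compounds at 10 µM. Higher most likely means stronger inhibition; the record gives no direction and few retests gave an IC50. About 65,000 compounds were tested under these conditions; 0.098% (about 64) showed 50% or more at least once.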
CoaBC: 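Enzyme assay of CoaBC with a phosphate dye (Biomol Green) read at 650 nm. Target: Coenzyme A biosynthesis protein CoaBC, Mycobacterium tuberculosis (UniProt P9WNZ1). Concentration: 30 µM. Higher reads as stronger inhibition, judged from the few compounds that gave an IC50. Most strong results did not repeat in a second test. Size under these conditions: about 67,000 compounds, about 40 of them at 50% or above in at least one test.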

Values are the deposited “Percent Effect”, in %. How 0% and 100% were set is not recorded. Most values in the screen are low, and negative values occur. This is an unselected part of the compounds tested. A dash means the value is not listed here; it may have been measured.

structure	LiHisRS	MtTrpRS	CoaBC
Cc1cc(=O)[nH]c(SC(C)C(=O)N2CCCN(C3CCCC3)CC2)n1 (stereo not given)	5.479	3.279	-0.2445
CSCC[C@@H](CO)Nc1ccc(-c2nc(C3CC3)no2)cn1	1.709	-4.64	5.983
c1ccc(N2CCCC3(CCN(Cc4ccsc4)C3)C2)nc1 (stereo not given)	0.9174	-6.633	-8
COCCOC(=O)N1CC2=CC(C)(C)COc3ccc(OC)c(c32)C1	14.29	-	-6.295
Cc1cc(F)c2c(c1)CCCN2Cc1nc2c(cnn2C)c(=O)[nH]1	13.33	0.8489	10
COCCn1cnc2ccc(NC(=O)c3c(C)noc3C)cc2c1=O	19.57	2.09	6.197
Cc1nc(C(=O)N(C)C)nn1-c1ccccc1C(C)C	21.43	3.661	-5.434
O=C(c1cccc(Oc2ccccc2)c1)N1CCCC(O)(CO)CC1 (stereo not given)	16.39	0.4831	-7.576
CCC1=N[C@@]2(CC[C@@H]3CN(S(=O)(=O)CC(C)C)C[C@@H]32)C(=O)N1CC	18.58	-0.239	-3.579
CN(CC1COc2ccccc2O1)C(=O)c1ccc(-c2cn[nH]c2)nc1 (stereo not given)	8.197	0.8051	0.6494
CC(=O)Nc1ccc(C(=O)N2CCSCC2c2ccc(C)o2)cc1 (stereo not given)	8.602	-0.4167	0.1122
CCOc1ncccc1CNC(=O)N1CCCC1c1cccs1 (stereo not given)	12.9	-2.91	3.075
O=C(CCNS(=O)(=O)c1ccccc1)NCc1ccoc1	18.45	-0.7105	-4.464
O=C1N(c2cccnc2)CCC12CCCN(Cc1ccco1)C2 (stereo not given)	31.43	3.743	7.166
O=C1OC2(CCN(C3CCCOC3)CC2)CN1CCc1ccccc1 (stereo not given)	8.491	0.2486	-2.727
Cc1ncsc1C(=O)N1CCC(c2ccc3c(NC(C)C)n[nH]c3n2)C1 (stereo not given)	15.71	-3.171	5.34
CN(Cc1ncc[nH]1)c1nc(-c2ccccn2)nc2c1CCNCC2	20.55	-1.687	-13.21
O=C(NCC(Cc1cccc(F)c1)N1CCCC1=O)c1ccc[nH]c1=O (stereo not given)	20.51	4.902	-0.5089
O=C(COc1cccc(Cl)c1)N1CCOCC(O)(CN2CCCC2)C1 (stereo not given)	17.7	-1.769	3.145
Cn1cc(C[C@H]2[C@H](O)CCN2CC2CCOCC2)cn1	20	0.3127	5.5
COc1ncccc1CNC(=O)NC1CCCOc2ccccc21 (stereo not given)	9.821	-3.888	4.215
Cn1c(CN2CCC(O)CC2)nnc1C1CCCN(C(=O)C2CNC2)C1 (stereo not given)	25	-1.701	3.571
CCCn1ncc(CN2C[C@@H]3CCCN3C[C@@H]2CCSC)c1C	13.89	-4.264	0.5556
CCOC[C@]12COC[C@H]1CN(Cc1cccc(OC)c1)C2	10.09	-0.6875	-0.6085
CCN1CCn2cc(CNC(=O)c3cnn(C)c3)nc2C1	12.35	4.756	4.481
Cc1cc2c(cc1Cl)C=CC1(CCN(CC(=O)N3CCCC3)CC1)O2	20.13	-6.914	3.881
CC(NC(=O)c1cccc(CN2CCN(C)CC2)c1)c1ccccn1 (stereo not given)	9.524	-4.624	1.988
CC(C)c1cc(NC(=O)CN2CCc3nn(C)c(=O)cc3C2)on1	78.79	6.187	5.325
CCn1cc(S(=O)(=O)N2CCN(S(=O)(=O)c3ccc(Br)s3)CC2)c(C)n1	2.381	1.44	-0.7282
CCN(Cc1ccncc1)c1cc(C2CCCNC2)nc(C)n1 (stereo not given)	28.57	4.405	-9.752
COc1ccc(CNC(=O)CN2CCc3ccccc32)cc1	28.77	16.14	4.808
c1ccc(CN2CCC3(CC2)Nc2ccccc2CO3)cc1	19.57	0.8223	4.116
CCC(C)NC(=O)CN1CCC2(CC1)OCCO2 (stereo not given)	5.983	-2.23	5.462
CC(C)C(=O)NCCCn1ncc2c(Cl)cccc21	14.15	2.237	7.727
CCN(CC)Cc1ccc(C(=O)N2CCN(CC(C)O)CC2)cc1 (stereo not given)	26.19	-1.8	2.017
O=C1C[C@@H]2CCN(Cc3ccccc3)C[C@@H]2CCN1c1ccccc1	25	1.732	6.546
CN(Cc1ccc(C#N)cc1)CC1CCS(=O)(=O)C1 (stereo not given)	8.333	-0.6415	-4.317
CCn1cc(CN2CCCN(C(=O)c3ccc(C)nc3)CC2)cn1	13.27	-1.63	1.567
Cc1ccc(C(=O)N2CCC3(CCC(=O)N(CCN(C)C)C3)CC2)nc1	-1.333	-0.9726	-7.025
CC(C)[C@H]1CN(CCCO)C[C@@H]1NC(=O)CCS(C)(=O)=O	8.197	3.704	8.009
Cc1nc2c(c(N3C[C@@H](C)[C@@](C)(O)C3)n1)CCC2	-4.959	-0.895	1.512
Cc1ncnc2c1CCN(Cc1ccc3c(c1)OCO3)CC2	11.43	6.003	9.677
O=C(O)c1ccc2c(CN3CCCC3)c[nH]c2c1	6.78	-6.388	4.642
O=C(NCCCOC1CCCCC1)C1NCCc2[nH]cnc21 (stereo not given)	15.15	0.6054	4.637
OCC1(O)CCCN(Cc2ccc(-c3cc[nH]n3)s2)CC1 (stereo not given)	5.263	-8.038	-0.6536
NCC(c1ccc(Cl)cc1)N1CCc2sccc2C1 (stereo not given)	13.7	1.527	4.875
COC(=O)c1ccc(N2CCC(N(C)c3ccccc3)CC2)nn1	10.83	-0.2064	-
CC(C)Cn1cnnc1C1CCCN1C(=O)OC(C)(C)C (stereo not given)	23.94	2.785	10.07
Cc1cc(NC(=O)NCC(O)c2ccc(Cl)cc2Cl)n(C)n1 (stereo not given)	18.4	-3.774	-4.521
CC1CN(C(=O)Nc2cccc(CN3CCOC3=O)c2)CCO1 (stereo not given)	16.05	-2.037	3.571
Cc1cc(CNC(=O)c2ccno2)c(C)o1	26.09	6.641	2.179
CC1c2ncc(COc3cccnc3)n2CCN1C(=O)C1=CCCCC1 (stereo not given)	17.95	2.075	0.5013
CN(C)CC1CSCCCN1C(=O)Nc1ccc(C(C)(C)C)cc1 (stereo not given)	18.45	-2.977	3.169
CNS(=O)(=O)CC(=O)N(C1CC1)C1Cc2ccccc2C1	7.752	2.545	0.3686
COC(=O)[C@H]1C[C@@H](O)CCN1S(=O)(=O)c1cc(C)c(Cl)cc1C	12	2.42	-2.475
N#CC1COCCN1C(=O)c1cccc2cc[nH]c12 (stereo not given)	-1.176	2.271	2.265
CCCN1CCN(C(=O)c2cnc(C)nc2)[C@H]2CS(=O)(=O)C[C@H]21	8.333	1.215	4.762
Cc1ccc(CNCC2CCCn3ccnc32)s1 (stereo not given)	5.263	-1.975	-10.08
N#Cc1nccnc1N1CCC(COCc2ccccc2)C1 (stereo not given)	-4.255	-5.14	-3.226
Cc1cc(C)c2nc(CN3CCCC(c4cc[nH]n4)C3)cc(O)c2c1 (stereo not given)	17.31	-3.638	-7.463
COc1cccc(-c2csc(Cn3ccc(=O)[nH]c3=O)n2)c1	10.92	-3.85	-5.691
Cc1cccnc1CN1CCN(C[C@]2(O)CCCN3CCCC[C@@H]32)CC1	20	3.191	7.127
O=C(c1cscn1)N1C[C@@H](Oc2cccnc2)[C@H]2OCCC[C@H]21	24.77	6.965	3.294
CNS(=O)(=O)c1cccc(C(C)NCc2ccc(F)cc2F)c1 (stereo not given)	6.25	-0.6353	9.524
Cc1nn(C)c(C)c1CNCc1cccnc1N1CCOCC1	18.09	2.415	12.12
COc1cccc(OC2CN(C(=O)c3c(C)noc3C)C2)c1	10.75	-2.75	4.602
CSCCNC(=O)c1coc(COc2ccc(F)cc2)n1	-12.12	3.232	1.775
Cc1ccc(S(=O)(=O)n2ccn(C(=O)CC(C)C)c2=O)cc1	18.42	3.613	1.266
Cc1noc([C@@H]2CCCN2C(=O)C2CCN(C(=O)C3CCC3)CC2)n1	5.769	-8.054	-0.6397
Fc1cccc(CN2CCOCC3(CCN(C4CCOCC4)C3)C2)c1 (stereo not given)	10.91	-4.882	-11.76
CCCC(=O)Nc1cccc(C(=O)N(C)CCCC2CCCO2)c1 (stereo not given)	3.333	-3.778	-10.15

Some entries from above, unchanged:

structure	LiHisRS	MtTrpRS	CoaBC
COCCOC(=O)N1CC2=CC(C)(C)COc3ccc(OC)c(c32)C1	14.29	-	-6.295
O=C(c1cccc(Oc2ccccc2)c1)N1CCCC(O)(CO)CC1 (stereo not given)	16.39	0.4831	-7.576
Cn1cc(C[C@H]2[C@H](O)CCN2CC2CCOCC2)cn1	20	0.3127	5.5
OCC1(O)CCCN(Cc2ccc(-c3cc[nH]n3)s2)CC1 (stereo not given)	5.263	-8.038	-0.6536
O=C(c1cscn1)N1C[C@@H](Oc2cccnc2)[C@H]2OCCC[C@H]21	24.77	6.965	3.294
O=C1C[C@@H]2CCN(Cc3ccccc3)C[C@@H]2CCN1c1ccccc1	25	1.732	6.546
O=C(CCNS(=O)(=O)c1ccccc1)NCc1ccoc1	18.45	-0.7105	-4.464
COc1ccc(CNC(=O)CN2CCc3ccccc32)cc1	28.77	16.14	4.808